This is an account of results in the supplement of paper PMC11006884.

Amino acid sequences for entries named in this document (tags omitted). A change or cut given only in a name is not applied to a line headed by its entry.
UniProt Q9UBS0: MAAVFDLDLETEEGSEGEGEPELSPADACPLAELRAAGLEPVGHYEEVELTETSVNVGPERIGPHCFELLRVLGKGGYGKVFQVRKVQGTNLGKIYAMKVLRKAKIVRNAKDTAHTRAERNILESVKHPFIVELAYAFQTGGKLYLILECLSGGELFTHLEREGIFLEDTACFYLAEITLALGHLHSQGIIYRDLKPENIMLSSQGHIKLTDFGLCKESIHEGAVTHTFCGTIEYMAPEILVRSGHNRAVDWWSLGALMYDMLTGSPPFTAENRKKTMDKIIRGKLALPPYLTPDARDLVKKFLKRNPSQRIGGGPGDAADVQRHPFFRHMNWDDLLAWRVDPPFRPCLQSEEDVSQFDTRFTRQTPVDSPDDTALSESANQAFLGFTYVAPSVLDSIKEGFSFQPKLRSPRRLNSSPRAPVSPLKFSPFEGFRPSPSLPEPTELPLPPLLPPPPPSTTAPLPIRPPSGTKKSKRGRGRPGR
UniProt Q9NYF8, whole entry, looked up: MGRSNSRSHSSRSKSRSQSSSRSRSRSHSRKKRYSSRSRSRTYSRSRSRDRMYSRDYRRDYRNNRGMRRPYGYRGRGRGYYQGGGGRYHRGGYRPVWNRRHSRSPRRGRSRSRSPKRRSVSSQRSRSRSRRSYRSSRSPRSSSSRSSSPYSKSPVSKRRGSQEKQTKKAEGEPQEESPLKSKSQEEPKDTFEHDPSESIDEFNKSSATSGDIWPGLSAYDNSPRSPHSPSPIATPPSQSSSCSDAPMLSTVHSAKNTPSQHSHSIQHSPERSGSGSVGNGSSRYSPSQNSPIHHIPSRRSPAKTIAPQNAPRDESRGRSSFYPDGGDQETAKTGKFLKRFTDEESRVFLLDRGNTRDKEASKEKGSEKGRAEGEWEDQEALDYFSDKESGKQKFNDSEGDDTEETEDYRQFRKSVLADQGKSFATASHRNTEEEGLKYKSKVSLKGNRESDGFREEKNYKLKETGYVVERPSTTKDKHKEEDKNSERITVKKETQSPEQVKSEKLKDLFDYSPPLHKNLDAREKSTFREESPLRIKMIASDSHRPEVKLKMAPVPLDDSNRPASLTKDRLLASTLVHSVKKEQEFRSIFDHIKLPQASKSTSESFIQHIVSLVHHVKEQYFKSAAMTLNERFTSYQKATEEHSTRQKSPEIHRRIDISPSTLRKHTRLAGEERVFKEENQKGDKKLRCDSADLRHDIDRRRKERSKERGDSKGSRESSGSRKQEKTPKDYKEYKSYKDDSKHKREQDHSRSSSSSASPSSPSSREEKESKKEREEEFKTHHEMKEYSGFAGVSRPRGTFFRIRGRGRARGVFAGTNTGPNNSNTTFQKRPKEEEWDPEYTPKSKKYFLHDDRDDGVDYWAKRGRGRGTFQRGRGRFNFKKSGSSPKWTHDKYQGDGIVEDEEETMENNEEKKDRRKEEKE
UniProt Q9UGP4: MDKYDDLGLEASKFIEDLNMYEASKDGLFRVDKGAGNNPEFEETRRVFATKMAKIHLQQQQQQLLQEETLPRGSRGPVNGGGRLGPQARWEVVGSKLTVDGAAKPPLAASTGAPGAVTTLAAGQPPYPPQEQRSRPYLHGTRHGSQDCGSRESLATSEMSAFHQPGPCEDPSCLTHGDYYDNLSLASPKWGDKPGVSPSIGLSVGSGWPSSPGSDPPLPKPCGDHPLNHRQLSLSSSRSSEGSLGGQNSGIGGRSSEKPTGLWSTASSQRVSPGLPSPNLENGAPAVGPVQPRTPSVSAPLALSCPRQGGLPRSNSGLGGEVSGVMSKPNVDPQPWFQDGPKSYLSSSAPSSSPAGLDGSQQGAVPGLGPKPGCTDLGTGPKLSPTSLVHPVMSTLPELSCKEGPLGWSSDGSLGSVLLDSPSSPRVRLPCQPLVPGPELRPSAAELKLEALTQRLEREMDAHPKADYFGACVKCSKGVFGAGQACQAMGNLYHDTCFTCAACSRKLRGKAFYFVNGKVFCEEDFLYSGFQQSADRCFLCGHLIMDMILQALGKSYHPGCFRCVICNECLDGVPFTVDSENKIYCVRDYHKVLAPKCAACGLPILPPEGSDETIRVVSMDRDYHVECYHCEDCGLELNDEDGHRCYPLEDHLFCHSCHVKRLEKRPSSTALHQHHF
UniProt Q9NYV4, whole entry, looked up: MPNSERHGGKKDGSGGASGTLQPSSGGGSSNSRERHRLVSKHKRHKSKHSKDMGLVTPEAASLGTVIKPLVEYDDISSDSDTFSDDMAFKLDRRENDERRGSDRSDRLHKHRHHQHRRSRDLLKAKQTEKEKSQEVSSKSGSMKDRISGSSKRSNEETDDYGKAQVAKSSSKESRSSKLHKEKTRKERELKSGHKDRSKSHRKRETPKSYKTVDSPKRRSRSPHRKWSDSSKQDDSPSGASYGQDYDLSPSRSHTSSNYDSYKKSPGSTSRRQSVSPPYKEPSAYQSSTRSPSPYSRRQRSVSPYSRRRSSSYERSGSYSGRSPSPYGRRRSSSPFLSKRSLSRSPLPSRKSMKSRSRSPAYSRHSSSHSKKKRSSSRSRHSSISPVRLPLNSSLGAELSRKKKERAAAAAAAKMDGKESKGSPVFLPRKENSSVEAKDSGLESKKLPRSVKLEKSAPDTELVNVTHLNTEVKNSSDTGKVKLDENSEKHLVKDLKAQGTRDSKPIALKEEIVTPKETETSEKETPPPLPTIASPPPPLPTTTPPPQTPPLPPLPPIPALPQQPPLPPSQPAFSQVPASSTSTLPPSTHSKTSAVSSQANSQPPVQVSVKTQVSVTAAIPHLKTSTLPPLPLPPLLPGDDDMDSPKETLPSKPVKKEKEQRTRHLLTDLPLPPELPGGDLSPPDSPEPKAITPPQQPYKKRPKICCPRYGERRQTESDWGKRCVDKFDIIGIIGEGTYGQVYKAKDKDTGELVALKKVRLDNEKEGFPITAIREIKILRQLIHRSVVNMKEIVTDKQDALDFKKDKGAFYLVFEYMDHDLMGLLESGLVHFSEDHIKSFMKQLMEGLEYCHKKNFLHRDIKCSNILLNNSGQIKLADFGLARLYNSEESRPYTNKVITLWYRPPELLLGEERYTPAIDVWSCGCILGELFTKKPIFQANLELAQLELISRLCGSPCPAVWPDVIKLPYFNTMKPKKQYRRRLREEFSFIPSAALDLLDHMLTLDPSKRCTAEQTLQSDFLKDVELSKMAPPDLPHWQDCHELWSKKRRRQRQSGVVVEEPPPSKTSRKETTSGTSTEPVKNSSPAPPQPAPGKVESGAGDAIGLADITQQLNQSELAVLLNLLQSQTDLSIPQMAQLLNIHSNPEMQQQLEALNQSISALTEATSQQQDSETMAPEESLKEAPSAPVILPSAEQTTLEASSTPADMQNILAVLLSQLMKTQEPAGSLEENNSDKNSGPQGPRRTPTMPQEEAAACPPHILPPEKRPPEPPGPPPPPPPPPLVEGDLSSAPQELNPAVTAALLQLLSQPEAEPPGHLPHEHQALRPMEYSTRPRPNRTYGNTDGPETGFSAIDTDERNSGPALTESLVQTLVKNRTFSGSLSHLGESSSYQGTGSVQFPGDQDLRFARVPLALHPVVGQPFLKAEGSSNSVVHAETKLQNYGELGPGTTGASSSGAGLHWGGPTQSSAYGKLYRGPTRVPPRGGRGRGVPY
UniProt Q9UGI8: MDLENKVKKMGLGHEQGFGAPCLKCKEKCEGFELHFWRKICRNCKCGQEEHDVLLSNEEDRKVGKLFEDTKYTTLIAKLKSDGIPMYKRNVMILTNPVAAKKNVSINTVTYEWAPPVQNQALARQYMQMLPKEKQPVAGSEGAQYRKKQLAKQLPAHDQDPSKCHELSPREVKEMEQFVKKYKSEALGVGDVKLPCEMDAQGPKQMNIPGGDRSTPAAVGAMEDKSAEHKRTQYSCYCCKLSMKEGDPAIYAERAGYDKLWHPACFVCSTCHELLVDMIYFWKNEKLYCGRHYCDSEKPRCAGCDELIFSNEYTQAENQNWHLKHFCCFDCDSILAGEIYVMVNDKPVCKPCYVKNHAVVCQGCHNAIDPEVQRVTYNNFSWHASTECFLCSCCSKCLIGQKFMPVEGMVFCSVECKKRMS
UniProt Q9NZJ9: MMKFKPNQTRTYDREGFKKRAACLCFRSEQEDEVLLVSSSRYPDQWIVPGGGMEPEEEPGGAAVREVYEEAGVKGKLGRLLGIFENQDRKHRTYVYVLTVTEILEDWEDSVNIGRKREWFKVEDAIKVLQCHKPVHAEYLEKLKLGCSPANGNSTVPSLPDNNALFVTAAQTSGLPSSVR
UniProt Q9NZB2: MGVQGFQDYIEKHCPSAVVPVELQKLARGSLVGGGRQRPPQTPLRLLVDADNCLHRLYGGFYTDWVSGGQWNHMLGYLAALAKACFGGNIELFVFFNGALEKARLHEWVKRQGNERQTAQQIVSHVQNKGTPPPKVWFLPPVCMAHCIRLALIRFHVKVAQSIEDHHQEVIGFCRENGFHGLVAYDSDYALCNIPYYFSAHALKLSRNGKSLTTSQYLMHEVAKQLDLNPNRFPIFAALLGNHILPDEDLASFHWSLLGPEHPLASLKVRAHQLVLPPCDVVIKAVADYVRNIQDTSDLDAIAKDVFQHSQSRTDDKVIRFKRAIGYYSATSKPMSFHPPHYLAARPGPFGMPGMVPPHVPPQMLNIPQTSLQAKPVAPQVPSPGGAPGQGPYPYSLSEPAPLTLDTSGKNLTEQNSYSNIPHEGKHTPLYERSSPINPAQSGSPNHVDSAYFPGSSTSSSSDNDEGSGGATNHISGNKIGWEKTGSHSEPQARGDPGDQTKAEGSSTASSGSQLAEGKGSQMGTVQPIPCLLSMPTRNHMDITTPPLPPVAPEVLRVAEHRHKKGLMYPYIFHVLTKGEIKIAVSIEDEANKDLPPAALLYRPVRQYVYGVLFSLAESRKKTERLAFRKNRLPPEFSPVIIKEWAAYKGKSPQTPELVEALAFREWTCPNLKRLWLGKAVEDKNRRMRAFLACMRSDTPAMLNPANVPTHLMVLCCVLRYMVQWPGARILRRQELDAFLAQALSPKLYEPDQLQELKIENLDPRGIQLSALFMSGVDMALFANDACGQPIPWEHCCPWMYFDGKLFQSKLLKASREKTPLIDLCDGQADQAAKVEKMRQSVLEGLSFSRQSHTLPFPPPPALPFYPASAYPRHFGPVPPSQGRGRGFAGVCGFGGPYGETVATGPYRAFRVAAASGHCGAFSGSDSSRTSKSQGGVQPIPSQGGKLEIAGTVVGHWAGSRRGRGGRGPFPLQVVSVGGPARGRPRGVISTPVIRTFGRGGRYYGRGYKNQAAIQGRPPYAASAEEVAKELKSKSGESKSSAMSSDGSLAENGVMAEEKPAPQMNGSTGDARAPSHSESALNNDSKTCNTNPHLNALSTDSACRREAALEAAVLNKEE
UniProt Q9UBB6: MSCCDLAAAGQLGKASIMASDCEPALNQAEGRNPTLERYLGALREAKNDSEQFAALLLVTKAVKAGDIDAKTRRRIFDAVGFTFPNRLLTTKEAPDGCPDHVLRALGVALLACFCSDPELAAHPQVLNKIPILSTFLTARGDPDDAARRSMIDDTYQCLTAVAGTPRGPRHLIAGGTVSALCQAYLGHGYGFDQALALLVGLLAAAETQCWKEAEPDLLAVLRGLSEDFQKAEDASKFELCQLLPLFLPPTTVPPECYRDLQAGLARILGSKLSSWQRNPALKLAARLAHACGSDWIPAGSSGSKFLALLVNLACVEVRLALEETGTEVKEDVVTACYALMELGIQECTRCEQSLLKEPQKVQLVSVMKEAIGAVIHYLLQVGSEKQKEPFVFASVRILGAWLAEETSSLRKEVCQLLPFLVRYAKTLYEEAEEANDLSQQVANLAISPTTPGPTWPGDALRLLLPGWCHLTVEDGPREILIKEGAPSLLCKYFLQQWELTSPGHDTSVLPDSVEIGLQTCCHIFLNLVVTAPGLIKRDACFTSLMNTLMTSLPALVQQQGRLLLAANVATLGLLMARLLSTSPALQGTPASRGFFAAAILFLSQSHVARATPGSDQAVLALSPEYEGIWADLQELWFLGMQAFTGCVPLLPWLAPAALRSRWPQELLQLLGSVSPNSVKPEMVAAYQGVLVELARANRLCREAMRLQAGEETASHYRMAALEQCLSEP
UniProt Q9NY27: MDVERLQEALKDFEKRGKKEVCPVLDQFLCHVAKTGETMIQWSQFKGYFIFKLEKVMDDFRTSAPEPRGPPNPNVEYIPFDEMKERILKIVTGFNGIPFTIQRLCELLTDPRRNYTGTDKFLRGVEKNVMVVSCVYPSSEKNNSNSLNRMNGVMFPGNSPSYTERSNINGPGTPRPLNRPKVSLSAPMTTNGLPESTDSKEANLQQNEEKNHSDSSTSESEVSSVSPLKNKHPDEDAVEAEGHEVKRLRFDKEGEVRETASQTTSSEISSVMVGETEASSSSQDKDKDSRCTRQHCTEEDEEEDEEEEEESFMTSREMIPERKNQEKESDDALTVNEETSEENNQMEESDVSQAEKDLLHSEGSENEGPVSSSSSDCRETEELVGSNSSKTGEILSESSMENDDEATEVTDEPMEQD

Most of the targets with a hit are listed elsewhere, so they are rarer here than in the full data. Single values of this set are uncertain. The entries are a selection whose mix differs from that of the whole data set.

Compound in the experiment: COC(=O)/C=C/c1ccccc1 [methyl cinnamate]
The experiment is described as follows: log2 ratio of iodoacetamide-alkyne labeling of the cysteine site, DMSO over compound (competition); higher = stronger covalent engagement of the cysteine by the compound, active = 1 or more. The following applies: 500 µM; treatment time 1 h; system: HEK293T cell lysate. A digest of the protocol: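 The log2 competition ratio per cysteine is defined as mean reporter intensity in control channels over mean reporter intensity in compound channels. Lysate from HEK293T cells (2 mg/mL) received electrophile (500 µM) or vehicle for 1 h at ambient temperature, followed by iodoacetamide alkyne for 1 h. Samples were clicked to sCIP-TMT reagents, pooled, trypsin-digested overnight at 37 °C, streptavidin-enriched, acid-eluted and run on Orbitrap Eclipse LC-MS/MS with FAIMS, with quantification in FragPipe. Three replicates with duplicate channels were used, and any cysteine quantified in only one replicate was excluded.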
In the case of UniProt Q9UBS0_C348, the “log2 ratio of iodoacetamide-alkyne labeling” value (“log2 ratio” for short) was inactive: -0.107.

Take BCLAF1 C688 (UniProt Q9NYF8): the “log2 ratio” value is inactive: 0.279.

In the case of LIMD1 C222 (UniProt Q9UGP4), the “log2 ratio” value is inactive: 0.178.

Consider UniProt Q9NYV4_C1039, for which the “log2 ratio” value was inactive: 0.00388.

Consider MPP6 C432 (UniProt Q9NZW5), for which the “log2 ratio” value was inactive: 0.527.

With TES C416 (UniProt Q9UGI8), the “log2 ratio” value was inactive: -0.0167.

As to NUDT4 C147 (UniProt Q9NZJ9), the “log2 ratio” value is inactive: 0.0285.

ATAD3A C563 (UniProt Q9NVI7): the “log2 ratio” value is inactive: 0.0556.

Turning to FAM120A C531 (UniProt Q9NZB2), the “log2 ratio” value is inactive: 0.233.

Regarding ASH2L C207 (UniProt Q9UBL3), the “log2 ratio” value was inactive: -0.00185.

On to ATXN10 C165 (UniProt Q9UBB4), for which the “log2 ratio” value is inactive: 0.246.

For the target RCOR3 C233 (UniProt Q9P2K3), the “log2 ratio” value is inactive: -0.0434.

NCDN C98 (UniProt Q9UBB6): the “log2 ratio” value was inactive: 0.301.

Take PPP4R2 C296 (UniProt Q9NY27): the “log2 ratio” value was inactive: 0.183.

With UniProt Q9NXE8_C107, the “log2 ratio” value is inactive: -0.242.
